Results deposited as PubChem BioAssay AID743121 (NCATS, 2013)
Here is a random part of about 26,000 reagents. Over the whole deposit, 167 (0.63%) were called active. 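Calls are per gene from RSA p-values that are not deposited; an individual active-marked siRNA can sensitise only weakly.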 A number with no mark means an inactive call. Reagents against one gene are numbered here. Further read-outs or replicates are left out here. Reagent sequences are not shown.

- Purpose: 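Partners whose loss is lethal together with topoisomerase I blockade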 (primary screen)
- System: MDA-MB-231 cells, a human breast cancer line
- Reagents: single siRNA against human genes, 20 nM siRNA (0.8 pmol per well)
- Time to read-out: 120 h (drug added 48 h after transfection, read 72 h later)
- Treatment: camptothecin 20 nM (about EC30) for 72 h; vehicle 0.1% DMSO in parallel plates
- Measurement: 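Cell viability by ATP luminescence (CellTiter-Glo) as % of non-targeting siRNA wells, and the log2 ratio of viability without drug over viability with camptothecin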
- Direction: log2 vehicle/camptothecin viability: higher = stronger sensitisation to camptothecin
- Hit rule: 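Active genes have an RSA gene-level p-value below 0.001, computed from the ratios of their separate siRNAs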

The opening 2 records, ahead of the listing:
KCNJ8 #1 → log2 vehicle/camptothecin viability: -0.287
KCNJ8 #2 → log2 vehicle/camptothecin viability: 0.00795

Main list, from the start:
KCNJ8 #1 → log2 vehicle/camptothecin viability: -0.287
KCNJ8 #2 → log2 vehicle/camptothecin viability: 0.00795
KCNJ8 #3 → log2 vehicle/camptothecin viability: -0.157
KCNJ8 #4 → log2 vehicle/camptothecin viability: -0.239
NEK1 #1 → log2 vehicle/camptothecin viability: 0.00701
NEK1 #2 → log2 vehicle/camptothecin viability: -0.175
NEK1 #3 → log2 vehicle/camptothecin viability: -0.335
NEK1 #4 → log2 vehicle/camptothecin viability: -0.129
CDC42BPG #1 → log2 vehicle/camptothecin viability: -0.245
CDC42BPG #2 → log2 vehicle/camptothecin viability: 0.0835
CDC42BPG #3 → log2 vehicle/camptothecin viability: -0.503
CDC42BPG #4 → log2 vehicle/camptothecin viability: -0.352
TNNI3 #1 → log2 vehicle/camptothecin viability: -0.199
TNNI3 #2 → log2 vehicle/camptothecin viability: -0.287
TNNI3 #3 → log2 vehicle/camptothecin viability: -0.121
TNNI3 #4 → log2 vehicle/camptothecin viability: -0.117
SDC4 #1 → log2 vehicle/camptothecin viability: -0.162
SDC4 #2 → log2 vehicle/camptothecin viability: 0.114
SDC4 #3 → log2 vehicle/camptothecin viability: 0.0605
SDC4 #4 → log2 vehicle/camptothecin viability: -0.0561
TLR5 #1 → log2 vehicle/camptothecin viability: -0.107
TLR5 #2 → log2 vehicle/camptothecin viability: -0.196
TLR5 #3 → log2 vehicle/camptothecin viability: -0.195
TLR5 #4 → log2 vehicle/camptothecin viability: 0.292
